In PMC12622967 one finds binding data, which are given here for 2 molecules.

Chains of the proteins cited; added tags and fusions are not shown.
UniProt P52480: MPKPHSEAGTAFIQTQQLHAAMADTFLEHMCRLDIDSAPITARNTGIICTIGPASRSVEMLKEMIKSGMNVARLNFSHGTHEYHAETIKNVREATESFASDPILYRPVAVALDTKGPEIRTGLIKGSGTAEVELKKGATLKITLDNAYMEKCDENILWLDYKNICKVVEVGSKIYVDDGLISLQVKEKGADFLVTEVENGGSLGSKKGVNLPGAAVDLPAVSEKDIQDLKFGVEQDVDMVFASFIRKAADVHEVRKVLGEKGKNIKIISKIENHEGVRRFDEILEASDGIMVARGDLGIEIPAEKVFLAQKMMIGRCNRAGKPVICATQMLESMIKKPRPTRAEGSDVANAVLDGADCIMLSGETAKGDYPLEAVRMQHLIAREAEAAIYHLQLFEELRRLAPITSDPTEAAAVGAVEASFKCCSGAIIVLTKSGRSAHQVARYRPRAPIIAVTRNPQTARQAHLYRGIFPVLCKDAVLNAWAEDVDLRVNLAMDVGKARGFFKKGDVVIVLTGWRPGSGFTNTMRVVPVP

No constants are given. Whether binding was seen depends on the method and setting. In cells and extracts the contact can be indirect. These calls come from enrichment with a bait or labelling near it, and not all partners need be listed.

The experiment deals with T1, SNO-CoA Reductase 2 (SCoR2; product of the Akr1a1 gene) (mouse (endogenous in mouse heart)) (UniProt Q9JII6).
T1 sequence: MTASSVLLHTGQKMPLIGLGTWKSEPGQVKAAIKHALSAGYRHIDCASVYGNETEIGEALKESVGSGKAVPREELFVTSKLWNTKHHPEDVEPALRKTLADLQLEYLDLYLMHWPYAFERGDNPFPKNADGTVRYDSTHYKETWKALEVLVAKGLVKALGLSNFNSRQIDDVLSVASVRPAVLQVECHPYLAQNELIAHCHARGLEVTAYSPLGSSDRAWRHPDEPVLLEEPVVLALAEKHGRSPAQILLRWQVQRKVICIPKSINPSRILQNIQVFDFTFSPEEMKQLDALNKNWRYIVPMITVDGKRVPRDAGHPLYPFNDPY
In words: affinity purification with mass spectrometry; co-immunoprecipitation with 10 µg anti-SCoR2/AKR1A1 antibody (15054-1-AP, Proteintech) from untreated wild-type mouse heart lysate in non-denaturing lysis buffer (20 mM Tris-HCl pH 8.0, 137 mM NaCl, 1% NP-40, 2 mM EDTA), 2 hr at room temperature, protein A/G magnetic beads, elution with 0.1 M glycine pH 2.0, LC-MS/MS.

As for “pyruvate kinase M2 (PKM2) (from UniProt P52480 1-531) (enzyme)”, the binding result is reported as “binds”.

B1: β-hydroxybutyrate dehydrogenase (BDH1) (enzyme, UniProt Q80XN0 47-343)
chain: ASQADAASGKAILITGCDSGFGFSLAKHLHSKGFLVFAGCLMKDKGDAGVKELDSLKSDRLRTIQLNVCNSEEVEKAVETIRSGLKDPEKGMWGLVNNAGISTFGEVEFTSMETYKEVAEVNLWGTVRTTKSFLPLLRRAKGRVVNISSMLGRMANPARSPYCITKFGIEAFSDCLRYEMHPLGVKVSVVEPGNFIAATSLYSPERIQAIAKKMWDDLPEVVRKDYGRKYFDEKIAKMETYCNSGSTDTSSVINAVTHALTAATPYTRYHPMDYYWWLRMQIMTHFPGAISDKIYIH
Consider B1, for which the binding entry is listed as “binds”.
